The supplement of paper PMC10849652
This is one part of the list.

Amino acid sequences for entries named in this document (tags omitted). A change or cut given only in a name is not applied to a line headed by its entry.
UniProt P23246: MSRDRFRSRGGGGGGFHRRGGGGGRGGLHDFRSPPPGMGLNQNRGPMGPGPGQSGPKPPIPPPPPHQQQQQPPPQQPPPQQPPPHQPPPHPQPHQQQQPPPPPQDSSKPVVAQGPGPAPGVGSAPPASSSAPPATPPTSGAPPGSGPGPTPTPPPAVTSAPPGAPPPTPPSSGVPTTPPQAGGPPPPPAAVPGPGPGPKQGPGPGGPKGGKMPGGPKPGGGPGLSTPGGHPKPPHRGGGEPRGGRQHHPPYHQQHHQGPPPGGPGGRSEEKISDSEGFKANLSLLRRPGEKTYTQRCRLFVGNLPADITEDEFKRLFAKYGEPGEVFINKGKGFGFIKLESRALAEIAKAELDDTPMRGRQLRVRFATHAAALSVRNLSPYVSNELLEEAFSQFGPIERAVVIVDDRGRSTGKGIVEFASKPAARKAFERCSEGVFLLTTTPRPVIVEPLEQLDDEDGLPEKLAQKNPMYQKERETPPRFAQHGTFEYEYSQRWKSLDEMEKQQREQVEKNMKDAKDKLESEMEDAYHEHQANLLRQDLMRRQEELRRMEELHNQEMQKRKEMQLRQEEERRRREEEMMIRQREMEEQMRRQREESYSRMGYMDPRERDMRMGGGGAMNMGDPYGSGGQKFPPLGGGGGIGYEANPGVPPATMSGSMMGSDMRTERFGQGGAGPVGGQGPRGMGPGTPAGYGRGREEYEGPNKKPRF
UniProt Q96FS4: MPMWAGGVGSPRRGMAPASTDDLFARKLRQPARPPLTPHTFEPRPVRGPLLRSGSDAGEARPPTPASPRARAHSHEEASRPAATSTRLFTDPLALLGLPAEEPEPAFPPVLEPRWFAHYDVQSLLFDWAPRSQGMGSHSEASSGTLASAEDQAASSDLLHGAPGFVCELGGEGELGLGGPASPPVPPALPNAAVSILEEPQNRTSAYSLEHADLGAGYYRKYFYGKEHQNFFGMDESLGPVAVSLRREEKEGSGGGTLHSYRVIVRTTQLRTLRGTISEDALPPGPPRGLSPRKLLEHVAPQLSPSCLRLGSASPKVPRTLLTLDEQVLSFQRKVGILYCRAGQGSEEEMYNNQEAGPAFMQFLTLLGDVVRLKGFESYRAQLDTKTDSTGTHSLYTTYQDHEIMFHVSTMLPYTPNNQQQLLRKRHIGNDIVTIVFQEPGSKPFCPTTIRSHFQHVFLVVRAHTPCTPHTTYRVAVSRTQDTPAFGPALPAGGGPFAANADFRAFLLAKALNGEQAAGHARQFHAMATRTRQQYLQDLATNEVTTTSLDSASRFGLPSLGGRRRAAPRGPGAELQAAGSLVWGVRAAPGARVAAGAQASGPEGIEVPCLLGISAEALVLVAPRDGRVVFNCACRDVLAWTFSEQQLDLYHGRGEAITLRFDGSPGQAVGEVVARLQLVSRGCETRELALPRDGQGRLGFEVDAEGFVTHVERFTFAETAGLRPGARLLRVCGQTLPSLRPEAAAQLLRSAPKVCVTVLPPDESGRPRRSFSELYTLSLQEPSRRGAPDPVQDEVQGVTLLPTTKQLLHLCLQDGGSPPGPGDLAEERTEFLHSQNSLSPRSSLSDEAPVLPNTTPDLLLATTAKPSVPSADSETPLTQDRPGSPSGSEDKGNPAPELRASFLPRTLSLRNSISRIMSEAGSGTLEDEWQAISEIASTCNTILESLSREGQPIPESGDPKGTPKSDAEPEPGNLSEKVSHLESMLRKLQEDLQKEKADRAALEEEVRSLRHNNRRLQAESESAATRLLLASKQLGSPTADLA
UniProt A0MZ66, whole entry, looked up: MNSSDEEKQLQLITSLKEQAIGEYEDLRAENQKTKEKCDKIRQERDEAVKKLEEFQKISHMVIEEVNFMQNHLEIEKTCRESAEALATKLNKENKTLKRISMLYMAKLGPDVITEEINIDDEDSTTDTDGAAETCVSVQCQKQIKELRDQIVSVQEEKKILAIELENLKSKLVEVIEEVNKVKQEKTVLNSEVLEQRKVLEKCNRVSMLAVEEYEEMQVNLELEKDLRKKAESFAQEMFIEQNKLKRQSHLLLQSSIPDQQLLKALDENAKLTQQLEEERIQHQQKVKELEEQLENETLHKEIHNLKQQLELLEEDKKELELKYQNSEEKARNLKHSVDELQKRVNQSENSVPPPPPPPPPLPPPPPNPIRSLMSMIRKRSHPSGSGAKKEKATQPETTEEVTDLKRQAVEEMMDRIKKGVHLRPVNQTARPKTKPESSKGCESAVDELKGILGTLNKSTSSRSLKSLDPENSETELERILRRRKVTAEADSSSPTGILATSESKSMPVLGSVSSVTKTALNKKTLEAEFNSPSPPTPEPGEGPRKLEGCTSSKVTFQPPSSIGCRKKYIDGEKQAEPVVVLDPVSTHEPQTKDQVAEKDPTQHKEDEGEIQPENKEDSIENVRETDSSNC
UniProt Q9UHW9: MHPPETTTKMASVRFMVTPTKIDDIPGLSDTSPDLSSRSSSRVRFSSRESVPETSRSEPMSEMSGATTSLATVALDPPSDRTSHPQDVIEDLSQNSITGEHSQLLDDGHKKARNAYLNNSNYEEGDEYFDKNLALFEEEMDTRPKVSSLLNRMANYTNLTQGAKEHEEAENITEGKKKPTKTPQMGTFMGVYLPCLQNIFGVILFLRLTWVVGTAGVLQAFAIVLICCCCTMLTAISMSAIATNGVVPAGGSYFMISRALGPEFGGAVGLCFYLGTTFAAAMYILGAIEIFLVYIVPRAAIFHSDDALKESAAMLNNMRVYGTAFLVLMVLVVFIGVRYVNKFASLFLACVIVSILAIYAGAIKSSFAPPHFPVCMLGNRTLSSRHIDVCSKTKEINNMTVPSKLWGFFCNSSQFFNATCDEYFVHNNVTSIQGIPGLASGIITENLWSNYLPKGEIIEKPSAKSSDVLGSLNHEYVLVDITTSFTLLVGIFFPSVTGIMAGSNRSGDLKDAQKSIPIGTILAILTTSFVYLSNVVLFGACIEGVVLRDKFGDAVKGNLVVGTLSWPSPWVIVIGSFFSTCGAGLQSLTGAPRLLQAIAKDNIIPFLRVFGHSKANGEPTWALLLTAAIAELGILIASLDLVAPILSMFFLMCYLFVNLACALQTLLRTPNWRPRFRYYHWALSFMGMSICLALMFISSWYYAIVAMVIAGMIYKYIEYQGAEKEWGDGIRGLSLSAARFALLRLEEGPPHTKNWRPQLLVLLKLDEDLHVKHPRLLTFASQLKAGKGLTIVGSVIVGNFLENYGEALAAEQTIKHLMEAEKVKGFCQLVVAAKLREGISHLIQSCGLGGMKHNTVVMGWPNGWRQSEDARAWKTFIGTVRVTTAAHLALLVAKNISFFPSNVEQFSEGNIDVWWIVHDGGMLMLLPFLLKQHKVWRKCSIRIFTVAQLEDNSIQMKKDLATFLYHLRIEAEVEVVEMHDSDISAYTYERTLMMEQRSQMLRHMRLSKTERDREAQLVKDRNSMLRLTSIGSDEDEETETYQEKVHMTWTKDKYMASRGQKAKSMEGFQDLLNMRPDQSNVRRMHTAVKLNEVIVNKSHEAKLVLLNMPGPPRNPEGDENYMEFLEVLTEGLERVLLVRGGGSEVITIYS
UniProt Q15459: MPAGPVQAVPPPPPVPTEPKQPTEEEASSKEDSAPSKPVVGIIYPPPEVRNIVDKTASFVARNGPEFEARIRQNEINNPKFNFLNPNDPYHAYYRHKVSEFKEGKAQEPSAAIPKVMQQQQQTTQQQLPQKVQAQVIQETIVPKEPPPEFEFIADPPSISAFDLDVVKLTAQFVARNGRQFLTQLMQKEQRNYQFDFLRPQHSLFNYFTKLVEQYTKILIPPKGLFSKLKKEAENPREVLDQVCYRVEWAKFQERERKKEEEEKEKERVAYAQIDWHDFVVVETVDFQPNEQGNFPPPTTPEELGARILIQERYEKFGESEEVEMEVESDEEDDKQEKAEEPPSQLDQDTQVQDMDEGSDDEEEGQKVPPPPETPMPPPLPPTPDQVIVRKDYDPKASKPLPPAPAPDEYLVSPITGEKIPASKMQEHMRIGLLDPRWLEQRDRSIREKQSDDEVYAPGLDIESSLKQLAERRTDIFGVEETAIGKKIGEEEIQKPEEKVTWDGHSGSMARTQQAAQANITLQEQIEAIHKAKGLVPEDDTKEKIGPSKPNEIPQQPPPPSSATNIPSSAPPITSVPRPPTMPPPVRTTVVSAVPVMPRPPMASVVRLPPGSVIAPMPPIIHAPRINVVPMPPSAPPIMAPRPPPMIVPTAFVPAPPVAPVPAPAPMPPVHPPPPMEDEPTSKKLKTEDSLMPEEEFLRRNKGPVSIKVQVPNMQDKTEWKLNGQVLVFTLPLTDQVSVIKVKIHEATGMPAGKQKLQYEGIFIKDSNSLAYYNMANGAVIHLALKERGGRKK
UniProt Q96EQ0: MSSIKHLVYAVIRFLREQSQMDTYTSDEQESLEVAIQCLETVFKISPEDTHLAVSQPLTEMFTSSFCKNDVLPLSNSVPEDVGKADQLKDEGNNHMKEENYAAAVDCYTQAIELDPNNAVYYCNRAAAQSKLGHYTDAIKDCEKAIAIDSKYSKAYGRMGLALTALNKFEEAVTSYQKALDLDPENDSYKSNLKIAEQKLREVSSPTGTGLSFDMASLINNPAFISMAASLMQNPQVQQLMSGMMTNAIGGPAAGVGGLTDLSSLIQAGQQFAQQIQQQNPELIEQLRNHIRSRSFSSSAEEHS
UniProt O43166: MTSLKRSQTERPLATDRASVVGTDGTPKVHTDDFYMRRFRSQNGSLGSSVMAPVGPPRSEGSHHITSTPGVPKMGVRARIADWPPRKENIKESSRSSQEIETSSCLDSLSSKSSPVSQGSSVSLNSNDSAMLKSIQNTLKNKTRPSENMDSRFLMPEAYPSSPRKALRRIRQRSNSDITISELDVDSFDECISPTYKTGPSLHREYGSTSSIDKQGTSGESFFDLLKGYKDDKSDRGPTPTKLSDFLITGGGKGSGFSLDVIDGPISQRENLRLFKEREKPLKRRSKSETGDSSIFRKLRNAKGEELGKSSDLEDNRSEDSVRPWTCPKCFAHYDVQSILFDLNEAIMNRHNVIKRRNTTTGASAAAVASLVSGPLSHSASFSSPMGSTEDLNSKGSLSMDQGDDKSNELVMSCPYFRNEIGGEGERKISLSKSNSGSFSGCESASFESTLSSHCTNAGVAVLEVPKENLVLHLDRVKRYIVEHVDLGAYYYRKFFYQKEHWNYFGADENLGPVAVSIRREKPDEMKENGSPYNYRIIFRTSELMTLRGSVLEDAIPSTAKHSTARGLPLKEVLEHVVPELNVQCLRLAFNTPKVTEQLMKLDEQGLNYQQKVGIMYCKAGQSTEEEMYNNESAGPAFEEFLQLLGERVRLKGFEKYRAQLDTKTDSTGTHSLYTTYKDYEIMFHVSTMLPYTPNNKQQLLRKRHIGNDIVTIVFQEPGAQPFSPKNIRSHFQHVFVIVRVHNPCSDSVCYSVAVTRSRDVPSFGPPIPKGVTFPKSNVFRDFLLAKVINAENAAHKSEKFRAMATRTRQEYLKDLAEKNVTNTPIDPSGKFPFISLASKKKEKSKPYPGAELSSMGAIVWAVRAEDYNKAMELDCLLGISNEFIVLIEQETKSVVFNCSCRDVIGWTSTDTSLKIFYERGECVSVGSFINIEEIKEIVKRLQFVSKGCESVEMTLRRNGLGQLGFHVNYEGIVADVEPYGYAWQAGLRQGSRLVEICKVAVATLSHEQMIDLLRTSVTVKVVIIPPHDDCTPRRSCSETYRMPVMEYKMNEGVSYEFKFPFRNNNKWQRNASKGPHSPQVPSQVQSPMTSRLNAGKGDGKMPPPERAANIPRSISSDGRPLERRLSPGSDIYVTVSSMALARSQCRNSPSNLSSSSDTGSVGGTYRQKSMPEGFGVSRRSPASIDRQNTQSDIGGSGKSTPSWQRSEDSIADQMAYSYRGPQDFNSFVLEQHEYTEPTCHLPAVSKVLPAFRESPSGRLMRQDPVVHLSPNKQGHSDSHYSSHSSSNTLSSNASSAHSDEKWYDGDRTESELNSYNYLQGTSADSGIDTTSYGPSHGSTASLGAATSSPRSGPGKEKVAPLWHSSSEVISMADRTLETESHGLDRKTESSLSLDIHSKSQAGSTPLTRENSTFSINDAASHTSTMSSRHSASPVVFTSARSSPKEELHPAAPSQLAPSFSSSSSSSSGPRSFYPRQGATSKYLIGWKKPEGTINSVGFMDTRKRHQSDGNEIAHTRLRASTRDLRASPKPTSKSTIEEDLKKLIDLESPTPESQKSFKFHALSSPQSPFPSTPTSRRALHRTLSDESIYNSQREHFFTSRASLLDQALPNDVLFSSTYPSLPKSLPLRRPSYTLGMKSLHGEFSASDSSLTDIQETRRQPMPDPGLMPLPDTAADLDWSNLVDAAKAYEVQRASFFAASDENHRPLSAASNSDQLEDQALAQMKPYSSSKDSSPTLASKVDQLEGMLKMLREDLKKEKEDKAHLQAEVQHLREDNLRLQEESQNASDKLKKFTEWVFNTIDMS

Assays:
Assay in all cases: log2 fold change, soluble protein after heating vs DMSO (PISA); higher = thermal stabilisation; K562 lysate, 10 uM; active = over 0.2 and 3.5 SD of the protein, either way, in both replicates (recomputed)
[1] = compound: NCC(=O)Nc1ccc(-n2nc(C(F)(F)F)cc2-c2ccc3c(ccc4ccccc43)c2)cc1
In short: (§1)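 Following dounce homogenisation of K562 pellets in PBS pH 7.4 with 1 mM MgCl2, crude extract at 1 mg/mL protein was incubated for 30 min with 10 μM compound. Aliquots were then heated for 3 min over 48°C-58°C and pooled, NP-40 was added to 0.5% at 4°C, and soluble protein was recovered as the supernatant at 21,000xg for 90 min. Channel-sum-equalised TMTpro 16plex LC-MS/MS quantified this protein. Each value, from duplicates, is a log-two fold change in thermal stability relative to solvent controls.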

vorinostat = compound: O=C(CCCCCCC(=O)Nc1ccccc1)NO [vorinostat]
In short: as §1

silmitasertib = compound: O=C(O)c1ccc2c(c1)nc(Nc1cccc(Cl)c1)c1ccncc12 [silmitasertib]
In short: as §1

[2] = compound: O=C1NC(=O)C(c2cnc3ccccn23)=C1c1cn2c3c(cc(F)cc13)CN(C(=O)N1CCCCC1)CC2
In short: as §1

entospletinib = compound: c1cn2cc(-c3ccc4cn[nH]c4c3)nc(Nc3ccc(N4CCOCC4)cc3)c2n1 [entospletinib]
In short: as §1

Measured: log2 fold change

SFPQ (UniProt P23246)
inactive: [1] 0.01 | vorinostat 0.015 | silmitasertib 0.023 | [2] -0.012 | entospletinib 0.009

SIPA1 (UniProt Q96FS4)
inactive: [1] 0.024 | vorinostat 0.013 | silmitasertib -0.021 | [2] -0.025 | entospletinib -0.082

SHTN1 (UniProt A0MZ66)
inactive: [1] 0.027 | vorinostat 0.031 | silmitasertib 0 | [2] 0.009 | entospletinib -0.005

SLC12A6 (UniProt Q9UHW9)
inactive: [1] 0.009 | vorinostat 0.15 | silmitasertib -0.045 | [2] 0.003 | entospletinib 0.013

SIKE1 (UniProt Q9BRV8)
inactive: [1] 0.011 | vorinostat 0.032 | silmitasertib 0.041 | [2] 0.039 | entospletinib -0.031

SF3A1 (UniProt Q15459)
inactive: [1] -0.003 | vorinostat 0.023 | silmitasertib -0.036 | [2] -0.024 | entospletinib 0.002

SGTB (UniProt Q96EQ0)
inactive: [1] -0.025 | vorinostat 0.093 | silmitasertib -0.03 | [2] 0.01 | entospletinib -0.017

Copied from the listing (2 entries):
SIPA1 (UniProt Q96FS4)
inactive: [1] 0.024 | vorinostat 0.013 | silmitasertib -0.021 | [2] -0.025 | entospletinib -0.082

SHTN1 (UniProt A0MZ66)
inactive: [1] 0.027 | vorinostat 0.031 | silmitasertib 0 | [2] 0.009 | entospletinib -0.005

Carrying on.

SIPA1L1 (UniProt O43166)
inactive: [1] 0.03 | vorinostat 0.164 | silmitasertib -0.112 | [2] 0.037 | entospletinib -0.026

SIRT1 (UniProt Q96EB6)
inactive: [1] -0.026 | vorinostat -0.04 | silmitasertib 0.049 | [2] 0.015 | entospletinib -0.019
